PubChem BioAssay AID1159578 – Peter MacCallum Cancer Centre, 2015

- Purpose: 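siRNA pools altering how lymphatic endothelial cells close a scratch wound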 (primary screen)
- Cells: human lymphatic endothelial cells
- Knock-down reagent: siRNA pool against human genes, 40 nM
- Time to read-out: 48 h after transfection
- Read-out: 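Cells stained with dye and imaged after a scratch; covered wound area and nuclei counted, duplicates averaged, migration set against mock wells and turned into a robust z-score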
- Direction: migration robust z-score: higher = faster migration into the scratch; nuclei per well: higher = more cells in the well
- Hit rule: 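Pools averaging fewer than 3300 nuclei are never called; remaining pools count as changed when migration robust z lies outside -2 to 2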
- Meaning of the calls: active = migration changed; inactive = no migration change, or too few cells
The whole screen tested about 18,000 reagents; shown is a random part of them. Over the whole deposit, about 1,030 (5.7%) are marked active. 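Inactive calls also include pools with fewer than 3300 nuclei, whose migration was not assessed.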 Raw values are not corrected between plates. Unmarked entries are inactive. Not all columns of the deposit are shown.

no.	Target gene	migration robust z-score	nuclei per well, duplicate mean
1	FOXO3 (forkhead box O3)	0.28	6999
2	PCGF2 (polycomb group ring finger 2)	-1.58	6098
3	STK10 (serine/threonine kinase 10)	-2	4178
4	LRCH3	0.4	5339
5	CCRL2 (C-C motif chemokine receptor like 2)	-0.62	6324
6	FOLR3 (folate receptor gamma)	-0.8	4890
7	SERINC1 (serine incorporator 1)	-1.88	6580
8	IL4 (interleukin 4)	-0.18	5856
9	OR1A2 (olfactory receptor family 1 subfamily A member 2)	-0.83	7422
10	TCAIM (T cell activation inhibitor, mitochondrial)	3.08 (active)	5545
11	CNIH2 (cornichon family AMPA receptor auxiliary protein 2)	-0.11	6266
12	LRRC40 (leucine rich repeat containing 40)	-0.5	5487
13	PRSS42P (serine protease 42, pseudogene)	-0.8	5164
14	RPGR (retinitis pigmentosa GTPase regulator)	-0.05	5486
15	SMIM15 (small integral membrane protein 15)	0.85	6806
16	DUS4L (dihydrouridine synthase 4 like)	-0.94	5569
17	VEZF1 (vascular endothelial zinc finger 1)	0.52	5870
18	RASSF2 (Ras association domain family member 2)	-0.9	4138
19	PTDSS2 (phosphatidylserine synthase 2)	0.34	7459
20	P2RX2 (purinergic receptor P2X 2)	-3.37 (active)	3630
21	TAS2R39 (taste 2 receptor member 39)	-0.06	4835
22	SMG7 (SMG7 nonsense mediated mRNA decay factor)	0.59	5074
23	SLCO1B7	0.67	4467
24	SYNGR3 (synaptogyrin 3)	2.02 (active)	6060
25	OR2G3 (olfactory receptor family 2 subfamily G member 3)	0.07	5154
26	NUP98 (nucleoporin 98 and 96 precursor)	0.65	5556
27	TAC3 (tachykinin precursor 3)	0.28	6886
28	CCDC51 (coiled-coil domain containing 51)	-0.07	6054
29	SLC38A11	-0.08	5298

Records above marked active:
Target gene	migration robust z-score	nuclei per well, duplicate mean
TCAIM (T cell activation inhibitor, mitochondrial)	3.08 (active)	5545
P2RX2 (purinergic receptor P2X 2)	-3.37 (active)	3630
SYNGR3 (synaptogyrin 3)	2.02 (active)	6060

The results go on:
no.	Target gene	migration robust z-score	nuclei per well, duplicate mean
30	CXCL11 (C-X-C motif chemokine ligand 11)	1.38	6284
31	NSUN6 (NOP2/Sun RNA methyltransferase 6)	0.32	5789
32	ASGR1 (asialoglycoprotein receptor 1)	0.55	4786
33	KCNJ13 (potassium inwardly rectifying channel subfamily J member 13)	-0.36	3674
34	TNPO1 (transportin 1)	-0.8	5473
35	WFDC8 (WAP four-disulfide core domain 8)	-1.69	3256
36	OR2J3 (olfactory receptor family 2 subfamily J member 3)	-0.86	4551
37	CHDH (choline dehydrogenase)	-1.29	3586
38	RNF186 (ring finger protein 186)	0.42	4544
39	H3C1 (H3 clustered histone 1)	-1.5	5512
40	MACROD2 (mono-ADP ribosylhydrolase 2)	-0.21	7325
41	POLD4 (DNA polymerase delta 4, accessory subunit)	-3.14 (active)	5418
42	C1orf216 (chromosome 1 open reading frame 216)	-0.14	6640
43	SIN3A (SIN3 transcription regulator family member A)	0.21	5124
44	SUGP2 (SURP and G-patch domain containing 2)	-0.22	7644
45	IAPP (islet amyloid polypeptide)	-0.84	6025
46	BTN2A1 (butyrophilin subfamily 2 member A1)	0.34	5607
47	USP28 (ubiquitin specific peptidase 28)	0.86	5378
48	CEACAM16 (CEA cell adhesion molecule 16, tectorial membrane component)	-1.15	5918
49	HNRNPA0 (heterogeneous nuclear ribonucleoprotein A0)	0.83	5252
50	PNLIP (pancreatic lipase)	0.6	6105
51	MLLT10 (MLLT10 histone lysine methyltransferase DOT1L cofactor)	1.14	6427
52	SLC25A25	-0.1	5693
53	TRIM69 (tripartite motif containing 69)	-1.27	3674
54	PDCD4 (programmed cell death 4)	-0.86	4323
55	RAB3IP (RAB3A interacting protein)	-0.9	5625
56	FOXC1 (forkhead box C1)	0.39	5888
57	RBMY1J (RNA binding motif protein Y-linked family 1 member J)	2.62 (active)	6321
